{"source": "patent US7326418B2", "about": "“Identification of novel factors that block programmed cell death or apoptosis by targeting JNK” (University of Chicago, priority 2001, dated 2008)", "system": "BJAB cells", "assay": "Fas-induced apoptosis of BJAB cells (PI staining) with JNK blocker", "format": "cell-based", "details": "anti-APO1 1 μg/ml, 16 hours, increasing concentrations of blocker", "note": "“Also recorded” adds a separate entry of the source. At least one structure is not confirmed: it was looked up by name or label, or the drawing left a doubt.", "data": [{"smiles": "Oc1c2ccccc2c2c3c(cccc13)N=N2", "note": "[SP600125]", "values": [{"measurement": "rescue from Fas-induced apoptosis", "value": "rescues; also recorded: dramatically rescued"}]}]}
